Source: the supplement of paper PMC8732350
Several values for one entry are separate records, joined by “and”; a condition that tells them apart may be missing. Equal values may be shown once. Where a name gives a salt, the structure may show the parent alone. ± gives the standard deviation of the averaged measurements. The list shows a part of the results. Most values lie within the scatter of the assay; repeated measurements hardly agree.

test system: A549; experiment: surface PD-L1 immunofluorescence intensity relative to IFN-gamma-only control (ratio); higher = more PD-L1 expression; conditions: 10 µM; exposure time 24 h; IFN-gamma 100 ng/mL

SMILES	surface PD-L1 immunofluorescence intensity
Nc1c(Br)cc(Br)cc1CN[C@H]1CC[C@H](O)CC1 [Ambroxol]	0.974
Nc1c(Br)cc(Br)cc1CN[C@H]1CC[C@H](O)CC1 [Ambroxol hydrochloride]	1.03 ± 0.058
Cn1ccnc1S [Methimazole (Tapazole, Northyx)]	1.12
Cn1ccnc1S [Methimazole]	0.968
CC1Nc2ccc(Cl)cc2S(=O)(=O)N1 (centres undefined)	1.02
CC(C)(Sc1cc(C(C)(C)C)c(O)c(C(C)(C)C)c1)Sc1cc(C(C)(C)C)c(O)c(C(C)(C)C)c1 [Probucol]	0.9031 ± 0.0067
O=C1Cc2cc(CCN3CCN(c4nsc5ccccc45)CC3)c(Cl)cc2N1 [Ziprasidone  Hydrochloride]	0.99
CC(C)/N=c1\cc2n(-c3ccc(Cl)cc3)c3ccccc3nc-2cc1Nc1ccc(Cl)cc1 [Clofazimine]	1.01
CCN[C@H]1C[C@H](C)S(=O)(=O)c2sc(S(N)(=O)=O)cc21 [Dorzolamide HCl]	0.87
CCN[C@H]1C[C@H](C)S(=O)(=O)c2sc(S(N)(=O)=O)cc21 [Dorzolamide hydrochloride]	0.978
CCOC(=O)[C@]12CC1/C(=N\O)c1ccccc1O2 (some centres undefined)	1.07
O=c1cc(-c2ccc(O)c(O)c2)oc2cc(O)cc(O)c12 [Luteolin]	1.07
CC(=O)Nc1ccc(NC(=S)NC(=O)c2ccc(C(C)(C)C)cc2)cc1 [Tenovin-1]	1
CC(C)(C(=O)c1cccnc1)c1cccnc1 [Metyrapone]	1.05
NCCCCNCCCN [Spermidine trihydrochloride]	0.982
NCCCCNCCCN [Spermidine]	0.999
Nc1ncn([C@H]2C[C@H](O)[C@@H](CO)O2)c(=O)n1 [Decitabine]	0.928
CN1CC(=O)NC1=N [Creatinine]	1
CSCC[C@H](NC=O)C(=O)N[C@@H](CC(=O)O)C(=O)NCC(=O)N[C@@H](CS)C(=O)N[C@@H](CCC(=O)O)C(=O)N[C@@H](CC(C)C)C(=O)O	1
CCC(Cc1c(I)cc(I)c(N)c1I)C(=O)O (centres undefined) [Iopanoic acid]	1.02
CCC(NC(C)C)C(O)c1ccc(O)c(O)c1 (centres undefined) [Isoetharine mesylate salt]	0.993
CN1C2=CC(=O)/C(=N\NC(N)=O)C=C2CC1S(=O)(=O)O (centres undefined) [Carbazochrome sodium sulfonate]	0.963
CNC(CC(=O)O)C(=O)O [NMDA (N-Methyl-D-aspartic acid)]	1
CC(=O)OCCNC(=O)c1cccnc1 [N-[2-(Acetoxy)ethyl]-3-pyridinecarboxamide]	0.95
C[C@H](NC(=O)Cc1cc(F)cc(F)c1)C(=O)N[C@H](C(=O)OC(C)(C)C)c1ccccc1	1.04
CN1CCc2cccc3c2[C@H]1Cc1ccc(O)c(O)c1-3 [(R)-(-)-Apomorphine hydrochloride]	1.03
CN1CCN(C2=Cc3ccccc3Oc3ccc(Cl)cc32)CC1	1.06

Some of the entries so far, in CSV form:
SMILES,surface PD-L1 immunofluorescence intensity
Nc1c(Br)cc(Br)cc1CN[C@H]1CC[C@H](O)CC1 [Ambroxol hydrochloride],1.03 ± 0.058
CC(C)(Sc1cc(C(C)(C)C)c(O)c(C(C)(C)C)c1)Sc1cc(C(C)(C)C)c(O)c(C(C)(C)C)c1 [Probucol],0.9031 ± 0.0067
CCN[C@H]1C[C@H](C)S(=O)(=O)c2sc(S(N)(=O)=O)cc21 [Dorzolamide hydrochloride],0.978

(further entries)

SMILES	surface PD-L1 immunofluorescence intensity
C[C@H](NC(=O)[C@@H](O)c1cc(F)cc(F)c1)C(=O)N[C@@H]1C(=O)N(C)c2ccccc2-c2ccccc21	1.04
CO[C@@]1(NC(=O)CSCC#N)C(=O)N2C(C(=O)O)=C(CSc3nnnn3C)CS[C@@H]21 [Cefmetazole sodium salt]	1.04
C[C@@H]1[C@H](O)[C@@H](C)/C=C/C=C/C=C/C=C/C=C/C=C/C=C/[C@H](O[C@@H]2O[C@H](C)[C@@H](O)[C@H](N)[C@@H]2O)C[C@@H]2O[C@](O)(C[C@@H](O)C[C@@H](O)[C@H](O)CC[C@@H](O)C[C@@H](O)CC(=O)O[C@H]1C)C[C@H](O)[C@H]2C(=O)O [Amphotericin B]	1.02
COc1ccc2[nH]c(I)c(CCNC(C)=O)c2c1 [2-Iodomelatonin]	1.09
CCOC(=O)C(C)(C)Oc1ccc(Cl)cc1 [Clofibrate]	1.12
O=c1cc(N2CCOCC2)oc2c1ccc1ccccc12	1.03
CC(C)NC[C@H](O)COc1ccc(CC(N)=O)cc1 [S-(-)-Atenolol]	0.99
CC(C)NC[C@H](O)COc1ccc(CC(N)=O)cc1 [(S)-(-)-Atenolol]	0.95
C[C@@H]1NC(=O)NC1=O [Methylhydantoin-5-(L)]	1.08
CC[C@H](C)[C@H](N)C1=N[C@H](C(=O)N[C@@H](CC(C)C)C(=O)N[C@H](CCC(=O)[O-])C(=O)N[C@H](C(=O)N[C@H]2CCCCNC(=O)[C@H](CC(N)=O)NC(=O)[C@@H](CC(=O)[O-])NC(=O)[C@H](Cc3cnc[nH]3)NC(=O)[C@@H](Cc3ccccc3)NC(=O)[C@H]([C@@H](C)CC)NC(=O)[C@@H](CCCN)NC2=O)[C@@H](C)CC)CS1.[Zn+2] [Bacitracin zinc]	1.06
O=C(O)c1ccccc1Nc1ccccc1 [N-phenylanthranilic acid]	0.94
CCCCCCCCCCCCCCCC(=O)NCCO [Palmitoylethanolamide]	0.904
CN1CCN(C2=Nc3cc(Cl)ccc3Nc3ccccc32)CC1 [Clozapine]	0.987 ± 0.14
Clc1ccc(COC(Cn2ccnc2)c2ccc(Cl)cc2Cl)c(Cl)c1 (centres undefined) [Miconazole]	0.912
CC(C)[C@@H](O)CC[C@@H](C)[C@H]1CC[C@H]2[C@@H]3CC=C4C[C@@H](O)CC[C@]4(C)[C@H]3CC[C@]12C [24(S)-Hydroxycholesterol]	1.09
NC12CC3CC(CC(C3)C1)C2 [Adamantamine fumarate]	0.982
Cc1[nH]c2ccccc2c1C(Nc1ccccn1)c1ccc(Cl)cc1 (centres undefined)	1.11
CO[C@H]1O[C@@H]2O[C@@]3(C)CC[C@H]4[C@H](C)CC[C@@H]([C@H]1C)[C@@]24OO3 [Artemether (SM-224)]	1.04
O=c1c2ccccc2oc2ccccc12 [Xanthone (Genicide)]	1.16
CC1(C2CCCC2)Cc2cc(OCC(=O)O)c(Cl)c(Cl)c2C1=O (centres undefined)	1.03
Cc1ccc(-c2ncc(Cl)cc2-c2ccc(S(C)(=O)=O)cc2)cn1 [Etoricoxib]	0.959
CC1(C)C(=O)NC2=C1C(=O)C(=O)c1ccccc12	1.11
CCCc1c(OCCCCc2nnn[nH]2)ccc(C(C)=O)c1O	1.06
CC1CCc2c(N3CCC(O)CC3)c(F)cc3c(=O)c(C(=O)O)cn1c23 (centres undefined) [Nadifloxacin]	0.975
Clc1ccc(CCCOCCCN2CCCCC2)cc1	0.929
Nc1nc(=O)c2c([nH]1)NC[C@H](CNc1ccc(C(=O)N[C@@H](CCC(=O)O)C(=O)O)cc1)N2C=O [Calcium levofolinate (Calcium Folinate)]	1.05
COc1cc(N)c(Cl)cc1C(=O)CCC1CCN(CCNS(C)(=O)=O)CC1	0.95

SMILES	surface PD-L1 immunofluorescence intensity
NCCc1cc[nH]n1 [Betazole hydrochloride]	0.839
CCCNC(C)C(=O)Nc1c(C)csc1C(=O)OC (centres undefined) [Articaine hydrochloride]	1.02
COc1cccc(N(C)C(=S)Oc2ccc3c(c2)CCCC3)n1 [Liranaftate]	1.07
CC(=O)C1=C(O)C=C2Oc3c(C(C)=O)c(O)c(C)c(O)c3C2(C)C1=O (single isomer, unassigned; (+)) [(+)-Usniacin (D-Usnic acid)]	1.03
Cc1cnc(-c2cnc(NCCNc3ccc(C#N)cn3)nc2-c2ccc(Cl)cc2Cl)[nH]1	1.23 and 1.21
Cc1c(NC(C)C)c(=O)n(-c2ccccc2)n1C [Isopyrin hydrochloride]	1.03
COc1ccc2c(c1)C(=O)N(CCc1ccc(S(=O)(=O)NC(=O)NC3CCCCC3)cc1)C(=O)C2(C)C [Gliquidone]	0.986
C=CCc1ccc(O)c(-c2cc(CC=C)ccc2O)c1 [Magnolol]	1.08
CC(=N)NCc1cccc(CN)c1 [1400W dihydrochloride]	0.967
NS(=O)(=O)Cc1noc2ccccc12 [Zonisamide]	0.946 ± 0.085
CC(C)c1cccc(=O)c(O)c1 [Hinokitiol]	0.881
CN(C)CCN(Cc1ccc(Cl)cc1)c1ccccn1 [Chloropyramine hydrochloride]	1.01
C[C@H](NC[C@H](O)CP(=O)(O)Cc1ccccc1)c1ccc(Cl)c(Cl)c1	1.04
O=C1NC(=O)c2cc(Nc3ccc(F)cc3)c(Nc3ccc(F)cc3)cc21	0.992
Cc1cn([C@H]2C[C@H](N=[N+]=[N-])[C@@H](CO)O2)c(=O)[nH]c1=O [Zidovudine, AZT]	1.2
COc1ccc([C@@H]2Sc3ccccc3N(CCN(C)C)C(=O)[C@@H]2OC(C)=O)cc1 [Diltiazem hydrochloride]	1 ± 0.1
Cc1c(NC(=O)OC[C@@H]2COCCN2)cn2ncnc(Nc3ccc4c(cnn4Cc4cccc(F)c4)c3)c12	0.915
NCCC(O)(P(=O)(O)O)P(=O)(O)O [Pamidronate Disodium]	1.01
CC(C[N+](C)(C)C)OC(N)=O (centres undefined) [Bethanechol chloride]	1.08
CC(C)C[C@H](NC(=O)N[C@H](C(=O)N[C@@H](CCC(N)=O)C(=O)N[C@@H](C)C=O)[C@@H]1CCNC(=N)N1)C(=O)O [Elastatinal]	0.88
NC(=O)c1ccc[n+]([C@@H]2O[C@H](COP(=O)([O-])OP(=O)(O)OC[C@H]3O[C@@H](n4cnc5c(N)ncnc54)[C@H](O)[C@@H]3O)[C@@H](O)[C@H]2O)c1 [Nadide]	1.07
CC(C)[C@H](NS(=O)(=O)c1ccc(-c2ccc(Br)cc2)cc1)C(=O)O	1.04
NCC(=O)CCC(=O)O [5-Aminolevulinic acid HCl]	1.09
O=C(Nc1ccccc1)N[C@@H]1C[C@@H](C(=O)O)Nc2cc(Cl)cc(Cl)c21	1.1
O=C(O)C[C@H](O)C[C@H](O)/C=C/c1c(C2CC2)nc2ccccc2c1-c1ccc(F)cc1 [Pitavastatin calcium (Livalo)]	1.17
